Measured data: PubChem BioAssay AID1224828 (NIAID, 2016)

Screen: 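Knock-downs that increase or decrease LPS-induced p65 nuclear translocation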 (primary screen)
Cells: mouse RAW264.7 G9 macrophage reporter cells (GFP-p65, Tnf promoter-mCherry)
Knock-down reagent: siRNA pool against mouse genes, 100 nM
Time to read-out: 2 days siRNA transfection, then 40 min LPS before fixation
Challenge: LPS (Salmonella minnesota R595) at 10 ng/ml
Measured: 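Microscopy ratio of nuclear to perinuclear-ring GFP-p65 signal, scaled to the plate median; gene score is the average of two replicate robust z-scores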
Direction: p65 translocation robust z-score: higher = more nuclear NF-kappaB p65 after LPS than the plate median; nuclear/cytoplasmic p65 ratio: higher = more nuclear NF-kappaB p65
Call rule: 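Called active when z exceeds 3.3 or falls under -1.56 (median of Tlr4 controls), giving activity score of at least 50; no calls for control wells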
Meaning of the calls: active = hit (p65 shift raised or lowered); inactive = no clear change
Here is an unselected part of about 17,000 reagents tested. 762 of them (4.5%) count as active. 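Active calls include both raised and lowered p65 entry, mostly lowered; wells with fewer than 50 cells lack a z-score.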 The raw values are shown without normalisation. A reagent listed more than once was tested more than once; the source does not tell the runs apart.

Gene	p65 translocation robust z-score	nuclear/cytoplasmic p65 ratio, rep 1	nuclear/cytoplasmic p65 ratio, rep 2	low cell count flag	Call
Klrb1c (GeneID 17059)	1.64	1.74	1.69	enough cells to score	inactive
Pramel27 (GeneID 194225)	0.82	1.62	1.43	enough cells to score	inactive
Tmod2 (GeneID 50876)	-0.36	1.31	1.16	enough cells to score	inactive
Or8b41 (GeneID 258474)	-0.06	1.36	1.26	enough cells to score	inactive
Cdkn2a (GeneID 12578)	0.53	1.66	1.88	enough cells to score	inactive
Mgat4c (GeneID 67569)	-0.22	1.4	1.51	enough cells to score	inactive
Lao1 (GeneID 100470)	-0.26	1.42	1.48	enough cells to score	inactive
Defb21 (GeneID 403172)		1.51	1.32	fewer than 50 cells per well; well left out of scoring	inactive
Spata6 (GeneID 67946)	1.04	1.56	1.35	enough cells to score	inactive
Extl2 (GeneID 58193)	0.69	1.6	1.42	enough cells to score	inactive
Wars1 (GeneID 22375)	0.05	1.56	1.58	enough cells to score	inactive
Prol1 (GeneID 17830)	0.81	1.86	1.76	enough cells to score	inactive
Zfp317 (GeneID 244713)	-0.79	1.31	1.16	enough cells to score	inactive
Dusp4 (GeneID 319520)	-0.66	1.57	1.31	enough cells to score	inactive
Tead2 (GeneID 21677)		1.18	1.1	fewer than 50 cells per well; well left out of scoring	inactive
Or4b13 (GeneID 406186)	-0.68	1.46	1.38	enough cells to score	inactive
Isoc1 (GeneID 66307)		1.3	1.45	fewer than 50 cells per well; well left out of scoring	inactive
Scart2 (GeneID 244234)	-0.5	1.3	1.3	enough cells to score	inactive
Defa29 (GeneID 13218)	-0.13	1.49	1.58	enough cells to score	inactive
Psca (GeneID 72373)	-0.13	1.36	1.21	enough cells to score	inactive
Txnl1 (GeneID 53382)		1.1	0.895	fewer than 50 cells per well; well left out of scoring	inactive
Fam117a (GeneID 215512)	1.18	1.51	1.63	enough cells to score	inactive
Alox12e (GeneID 11685)	1.92	1.87	2.01	enough cells to score	inactive
Atpaf1 (GeneID 230649)	-1.28	1.4	1.35	enough cells to score	inactive

Just “nuclear/cytoplasmic p65 ratio, rep 1” (3 entries from above):
Fam117a (GeneID 215512)	1.51
Alox12e (GeneID 11685)	1.87
Atpaf1 (GeneID 230649)	1.4

Additional reagents:
Gene	p65 translocation robust z-score	nuclear/cytoplasmic p65 ratio, rep 1	nuclear/cytoplasmic p65 ratio, rep 2	low cell count flag	Call
Commd4 (GeneID 66199)	-0.32	1.51	1.75	enough cells to score	inactive
Ilkap (GeneID 67444)		2.26	1.48	fewer than 50 cells per well; well left out of scoring	inactive
Ilkap (GeneID 67444)	-1.02	1.26	1.44	enough cells to score	inactive
Ace (GeneID 11421)	0.28	1.68	1.64	enough cells to score	inactive
Clcn6 (GeneID 26372)	-0.38	1.58	1.68	enough cells to score	inactive
Fastkd5 (GeneID 380601)	1.32	1.91	1.87	enough cells to score	inactive
Large1 (GeneID 16795)	-0.92	1.44	1.18	enough cells to score	inactive
A530095I07Rik (GeneID 210373)		1.32	1.73	fewer than 50 cells per well; well left out of scoring	inactive
Degs1 (GeneID 13244)	0.5	1.52	1.46	enough cells to score	inactive
Cited2 (GeneID 17684)	1.31	1.74	2.05	enough cells to score	inactive
Slc25a33 (GeneID 70556)	-1.68	1.19	1.19	enough cells to score	active
Itsn2 (GeneID 20403)	0.19	1.57	1.59	enough cells to score	inactive
Mob3c (GeneID 100465)	0.59	1.8	1.75	enough cells to score	inactive
Or2t48 (GeneID 258879)	-0.36	1.59	1.38	enough cells to score	inactive
Upk3b (GeneID 100647)	0.41	1.5	1.23	enough cells to score	inactive
Mael (GeneID 98558)	0.28	1.38	1.34	enough cells to score	inactive
Rpl5 (GeneID 100503670)	-1.1	1.37	1.34	enough cells to score	inactive
Maco1 (GeneID 66146)	-0.73	1.46	1.55	enough cells to score	inactive
Or9m1 (GeneID 258641)	-2.32	1.37	1.17	enough cells to score	active
Avp (GeneID 11998)	0.46	1.74	1.63	enough cells to score	inactive
Cetn4 (GeneID 207175)	0.13	1.72	1.69	enough cells to score	inactive
Vstm4 (GeneID 320736)	0.05	1.47	1.4	enough cells to score	inactive
Fhip2a (GeneID 226252)	1.28	1.85	1.83	enough cells to score	inactive
Or8g21 (GeneID 258741)	2.36	1.73	1.53	enough cells to score	inactive
Zbtb40 (GeneID 230848)	2.34	1.83	1.77	enough cells to score	inactive
Or7e168 (GeneID 258519)	3.14	1.84	2.16	enough cells to score	inactive
Trpc4 (GeneID 22066)	-1.02	1.36	1.37	enough cells to score	inactive
Vps50 (GeneID 73288)	-0.39	1.32	1.39	enough cells to score	inactive
Clba1 (GeneID 217887)	0.72	1.7	1.95	enough cells to score	inactive
Or10d1c (GeneID 258434)	0.62	1.58	1.27	enough cells to score	inactive
Zdhhc7 (GeneID 102193)		1.42	1.08	fewer than 50 cells per well; well left out of scoring	inactive
Fars2 (GeneID 69955)	4.51	1.13	2.09	enough cells to score	active
Aasdh (GeneID 231326)	0.24	1.35	1.56	enough cells to score	inactive
2610318N02Rik (GeneID 70458)		1.39	1.35	fewer than 50 cells per well; well left out of scoring	inactive
Or5ac17 (GeneID 404310)	1.86	1.86	1.69	enough cells to score	inactive
